## Primary screen of a compound library

Data taken from ChEMBL document CHEMBL3988442, “University of Dundee, Small-Polar-MMV Screening Library” (2021).

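Viability assay of Plasmodium falciparum sporozoites; the read-out is not stated. The concentration is filed as 10 mM, unlikely as a test dose, so the dose is not known. Higher reads as lower viability (inferred: compounds with an IC50 in retests scored well above the rest). Strong results were mostly tested again. Size under these conditions: about 34,000 compounds, about 280 of them at 50% or above in at least one test.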

The filed quantity is “Percent Effect” (%).
How 0% and 100% were set is not recorded. Most values in the screen are low, and negative values occur.
Compounds were drawn at random from those tested, without regard to their results.
Two or more numbers in one place are separate tests of the same structure; such repeats can differ widely.

| Compound | percent effect |
|---|---|
| `CC(C)n1ccc(-c2cc(C(=O)N3CCCC3)c3ccccn23)n1` | 12.57% |
| `O=C(O)C(F)(F)F.[H][C@@]12OCCN(Cc3ccc(F)cc3)[C@@]1([H])CC[C@H]2OCC1CCCC1` | 4.216% |
| `CC(C)(C)OC(=O)CNC(=O)CCc1nnc(-c2ccsc2)o1` | -10.91% |
| `CC[C@@H]1N(C)CCC[C@]12CCC(=O)N2Cc1ccncc1.O=C(O)C(F)(F)F.O=C(O)C(F)(F)F` | 3.065% |
| `Cc1ccc(C(O)CNCc2c(C(C)C)nn(C)c2N(C)C)cc1` (centres undefined) | -6.868% |
| `CC1(C(=O)N2CCN(c3cnccn3)CC2)CNCCO1` (centres undefined) | -6.539% |
| `CNc1cc(CCNC(=O)CC(C)C)nc(-c2ccccn2)n1` | -13.17% |
| `CC(C)CN1CC(C(=O)NCCNc2ncccn2)CC1=O` (centres undefined) | -1.739% |
| `CC(C)c1nc(C2CCCN(C(=O)c3ccc4nncn4c3)C2)no1` (centres undefined) | 5.672% |
| `CC(=O)N1CCN([C@@H]2CC[C@@H](NC(=O)c3ccc(C)nc3)[C@H]2O)CC1` | 5.53% |
| `COc1c(CNC2CCN(c3ncccn3)CC2)c(C)nn1C` | -1.554% |
| `COc1ccccc1CCNC(=O)CC1(Cn2cnnn2)CCCCC1` | -3.542% |
| `COc1ccc(CN2CCC3(CC2)CCN(CC(C)C)C3=O)cc1.O=C(O)C(F)(F)F` | 0.7842% |
| `CC(C)Oc1cccc(CC(=O)NC2CCN(CC(N)=O)CC2)c1` | 4.329% |
| `CCc1nnc2n1CCN(C(=O)Cc1csc(-c3ccco3)n1)C2` | 5.181% |
| `COCCN(C)CC1CCCN1S(=O)(=O)c1cc(C)oc1C` (centres undefined) | 7.954% & 6.033% |
| `COc1ccc(C[C@H]2CNCC[C@@H]2OCC2CC2)cc1` | 2.539% |
| `COCCC(=O)N1CCCC1c1csc(Nc2ccccn2)n1` (centres undefined) | 0.3347% |
| `O[C@H]1CN(c2nc(-c3ccccc3)no2)C[C@@H]1N1CCOCC1` | -27.06% & -32.72% |
| `COc1ccc(Br)c(C(=O)NCC2CC2)c1` | 3.186% |
| `CCCC(=O)NCCc1cc(N2CCN(C(C)=O)CC2)nc(C2CC2)n1` | -12.43% |
| `Cc1nnc(NCc2cccnc2N(C)C)c(C#N)c1C` | 8.271% |
| `CNC(=O)C1Cn2ccnc2C2(CCN(Cc3cccc(C)n3)CC2)O1.O=C(O)C(F)(F)F` (centres undefined) | -4.571% |
| `COc1c(CNCc2ccnc(N3CCCCC3)c2)c(C)nn1C` | -7.214% & 0.7529% & -0.2019% |
| `COCCOc1ccc(NC(=O)C2CC(=O)N(C)C2)cn1` (centres undefined) | 0.2467% |
| `CCN1C(=O)C(c2ccccc2)CC12CCN(CCO)CC2.O=C(O)C(F)(F)F` (centres undefined) | -2.224% |
| `Cc1ncncc1C(=O)NCCn1nc2ccccn2c1=O` | 1.877% |
| `Cc1cnn(CCNCc2csc(-c3ccc(C)o3)n2)c1` | 23.08% |
| `O=C(c1cnc(-c2ccco2)s1)N1CCOc2ncccc21` | -26.67% |
| `O=C(O)C(F)(F)F.[H][C@@]12COC[C@]1(C(=O)NCCc1ccccc1)CN(Cc1cnn(C)c1)C2` | 5.526% |
| `CC1CN(Cc2noc(C3CC3)n2)CCN1Cc1noc(C2CC2)n1` (centres undefined) | 0.2958% |
| `CCc1nc(CN2CCCN(C(=O)c3cncnc3C)CC2)cs1` | 6.283% |
| `Cc1nn(CC(=O)NCCc2ccncc2)c(=O)n1Cc1ccccc1` | -2.807% |
| `CN(C)c1ncnc2c1CCN(CC1CCOC1)CC2.O=C(O)C(F)(F)F` (centres undefined) | -9.371% |
| `Cc1cnc(N2CCC3(CCCCN3C)C2)nc1.O=C(O)C(F)(F)F` (centres undefined) | 1.369% |
| `O=C(c1n[nH]cc1Cl)N1CCCC(n2nnc3cc(F)ccc32)C1` (centres undefined) | -2.944% |
| `CN(C)c1cc(CNc2ccc(S(=O)(=O)C(C)(C)C)nc2)ccn1` | 0.3582% |
| `[H][C@@]12CCCO[C@]1([H])[C@H](Oc1cccnc1)CN2C(=O)Cc1ccccn1` | 24.01% |
| `Cn1cc(CN2CCCN(C(=O)c3cc[nH]n3)CC2)cn1` | 3.221% |
| `CC(NC(=O)Nc1cccnc1N1CCCC1)c1nncn1C` (centres undefined) | -2.4% |
| `Cc1ccc(NC(=O)CNc2cccc3c2CCCC3)c(Br)c1` | -8.304% |
| `CCCOC1CCCN(C(=O)c2cnc(-c3csc(C)n3)nc2O)C1` (centres undefined) | -10.62% |
| `CCCc1nnc(NCCCn2nc(C)c(Cl)c2C)o1` | -42% |
| `Cc1cnn(CC2CCCN2C(=O)c2ccccc2-n2cccn2)c1` (centres undefined) | 9.109% |
| `CC(=O)N1CCCC(c2nnc3n2CCN(C(=O)C2CCCCC2)C3)C1` (centres undefined) | -0.7975% |
| `CCN1CCNC(=O)C12CCN(C(=O)Cc1ccccn1)CC2` | 6.079% |
| `CC(c1cccc(S(N)(=O)=O)c1)N(C)CCOC(C)(C)C` (centres undefined) | 0.2026% |
| `CC(=O)N1CCCC(c2ncncc2-c2ccncc2)C1` (centres undefined) | 4.684% |
| `COc1cc(CNc2cc(-c3nncn3C)ccn2)cc(OC)c1OC` | -2.216% |
| `CC(C)c1nccc(CN2CCCC(O)(CN3CCCC3)C2)n1` (centres undefined) | -19.85% |
| `CCN1CCC2(CC1)CC(NC(=O)N(C)C)c1cc(C)ccc12.O=C(O)C(F)(F)F` (centres undefined) | 0.1082% |
| `CCc1nnc(Nc2cccc(C3CCCN(CC(C)(C)C)C3)n2)s1` (centres undefined) | 5.399% |
| `c1cnnc(N2CCCC2CNCc2cscn2)c1` (centres undefined) | 12.15% |
| `COc1cccc(-n2nnc(C(=O)N3CCNC(=O)C3)c2C)c1` | 16.75% |
| `Cc1nn(-c2ccccc2)nc1C(=O)N1CCCC1c1cnn(C)c1` (centres undefined) | -5.597% & 8.838% & 7.449% |
| `CCN1CCN(C)C2(CCN(C(=O)CC(F)(F)F)CC2)C1=O` | 8.305% |
| `CN(C)c1ccc(-c2cc(=O)n3c(n2)CCCCC3)cc1` | -1.74% |
| `CN(Cc1ccccc1F)C(=O)CS(=O)(=O)Cc1ccc(Cl)c(Cl)c1` | -11.56% |
| `O=S(=O)(Cc1ccccc1F)NC(CO)c1ccco1` (centres undefined) | -41.6% |
| `CNc1cc(C)nc(C2CN(Cc3ccc(Cl)cn3)CCO2)c1` (centres undefined) | 20.7% |
| `COc1c(CNC2CCN(C(=O)C(C)C)CC2)c(C(C)C)nn1C` | 0.03453% |
| `[H][C@@]12CCCN[C@]1([H])[C@@H](c1cccc(OC)c1)CN2C(=O)c1ccccc1` | 8.32% |
| `Cc1ccc(NC(=O)C2CSCN2C(=O)c2cnn(C)c2)c(C)c1` (centres undefined) | 0.4831% |
| `COc1ccc(C(=O)Nc2cc(CC(C)C)nn2C)cc1` | 4.424% |
| `OCC1CCCN(Cc2c(C3CCCC3)[nH]c3ncccc23)C1` (centres undefined) | 7.129% |
| `O=C(c1ccc(Cn2cc(Br)cn2)cc1)N1CCOCC1` | 1.523% |
| `CCNC(=O)NC(=O)CSC(C)c1c(F)cccc1F` (centres undefined) | -1.073% |
| `CC(=O)N1CC(=O)N(c2cnn(C)c2)CC12CCN(Cc1ccco1)C2` (centres undefined) | -7.22% |
| `[H][C@@]12C[C@@H](c3nnc(C4CC4)o3)O[C@]1([H])CN(CC1CCC1)C2` | 11.47% |
| `Cc1ncnc2c1CCN(Cc1ccc3c(c1)OCO3)CC2.O=C(O)C(F)(F)F` | -19.55% |
| `Cc1nc(C(=O)N2CCCC2c2c(C)nn(C)c2C)cs1` (centres undefined) | -2.288% |
| `O=C(NCC1Cn2nnc(-c3ccccc3)c2CO1)c1ccc[nH]1` (centres undefined) | -8.759% |
| `Cc1nc(CN2CCN(C(C)c3nc(C4CC4)no3)CC2)oc1C` (centres undefined) | 5.028% |
| `CC(=O)N1CCCN(c2cc(C3CN(C)CCO3)nc(C)n2)CC1` (centres undefined) | 7.615% |
| `CCOC(=O)c1sc2ccsc2c1CNC(=O)C(C)OC` (centres undefined) | -11.17% |

7 of the entries, repeated:

* COCCN(C)CC1CCCN1S(=O)(=O)c1cc(C)oc1C (centres undefined) | 7.954% & 6.033%
* CCCc1nnc(NCCCn2nc(C)c(Cl)c2C)o1 | -42%
* Cc1ccc(NC(=O)CNc2cccc3c2CCCC3)c(Br)c1 | -8.304%
* COc1ccc(CN2CCC3(CC2)CCN(CC(C)C)C3=O)cc1.O=C(O)C(F)(F)F | 0.7842%
* Cc1nn(CC(=O)NCCc2ccncc2)c(=O)n1Cc1ccccc1 | -2.807%
* CC(C)c1nc(C2CCCN(C(=O)c3ccc4nncn4c3)C2)no1 (centres undefined) | 5.672%
* COc1ccc(C[C@H]2CNCC[C@@H]2OCC2CC2)cc1 | 2.539%